Taken from: PubChem BioAssay AID1224828 (NIAID, 2016)

Test: 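Knock-downs that increase or decrease LPS-induced p65 nuclear translocation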 (primary screen)
Cell system: mouse RAW264.7 G9 macrophage reporter cells (GFP-p65, Tnf promoter-mCherry)
Reagents: siRNA pool against mouse genes, 100 nM
Duration: 2 days siRNA transfection, then 40 min LPS before fixation
Challenge: LPS (Salmonella minnesota R595) at 10 ng/ml
Read-out: 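Imaged p65 nuclear translocation ratio, normalised to the plate median, converted to robust z-scores and averaged across two replicates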
Reading the numbers: p65 translocation robust z-score: higher = more nuclear NF-kappaB p65 after LPS than the plate median; nuclear/cytoplasmic p65 ratio: higher = more nuclear NF-kappaB p65
Active means: 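Called active when z exceeds 3.3 or falls under -1.56 (median of Tlr4 controls), giving activity score of at least 50; no calls for control wells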
Meaning of the calls: active = hit (p65 shift raised or lowered); inactive = no clear change
This is a random part of about 17,000 reagents. Over the whole deposit, 762 (4.5%) were called active. 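Active calls include both raised and lowered p65 entry, mostly lowered; wells with fewer than 50 cells lack a z-score.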 The raw values are shown without normalisation. Unmarked entries are inactive.

| target | p65 translocation robust z-score | nuclear/cytoplasmic p65 ratio, rep 1 | nuclear/cytoplasmic p65 ratio, rep 2 | low cell count flag |
| --- | --- | --- | --- | --- |
| Usp43 (ubiquitin specific peptidase 43) | 1.98 | 1.67 | 1.43 | enough cells to score |
| Nab1 (Ngfi-A binding protein 1) | -3.3 (active) | 1.27 | 1.08 | enough cells to score |
| Slx1b (structure-specific endonuclease subunit SLX1B) | 0.35 | 1.45 | 1.4 | enough cells to score |
| Or5af2 (olfactory receptor family 5 subfamily AF member 2) | -0.41 | 1.51 | 1.41 | enough cells to score |
| Tceal8 (transcription elongation factor A (SII)-like 8) | – | 1.4 | 1.54 | fewer than 50 cells per well; well left out of scoring |
| Plin1 (perilipin 1) | 0.82 | 1.48 | 1.2 | enough cells to score |
| Aars1 (alanyl-tRNA synthetase 1) | 1.1 | 1.47 | 1.73 | enough cells to score |
| Cyp4v3 (cytochrome P450, family 4, subfamily v, polypeptide 3) | 1.48 | 1.76 | 2.06 | enough cells to score |

Next part; the last 3 above are carried over.
| target | p65 translocation robust z-score | nuclear/cytoplasmic p65 ratio, rep 1 | nuclear/cytoplasmic p65 ratio, rep 2 | low cell count flag |
| --- | --- | --- | --- | --- |
| Plin1 (perilipin 1) | 0.82 | 1.48 | 1.2 | enough cells to score |
| Aars1 (alanyl-tRNA synthetase 1) | 1.1 | 1.47 | 1.73 | enough cells to score |
| Cyp4v3 (cytochrome P450, family 4, subfamily v, polypeptide 3) | 1.48 | 1.76 | 2.06 | enough cells to score |
| Pag1 | -1.29 | 1.48 | 1.31 | enough cells to score |
| Acin1 (apoptotic chromatin condensation inducer 1) | 0.33 | 1.68 | 1.66 | enough cells to score |
| Mmd2 (monocyte to macrophage differentiation-associated 2) | 1.52 | 2 | 1.84 | enough cells to score |
| Gatd1 (glutamine amidotransferase like class 1 domain containing 1) | 1.5 | 1.72 | 2.18 | enough cells to score |
| Zrsr2-ps1 | – | 0.962 | 0.905 | fewer than 50 cells per well; well left out of scoring |
| Tsc22d4 (Tsc22 domain family, member 4) | 0.2 | 1.64 | 1.51 | enough cells to score |
| Arpc4 (actin related protein 2/3 complex, subunit 4) | -0.28 | 1.61 | 1.54 | enough cells to score |
| Wrnip1 (Werner helicase interacting protein 1) | 0.09 | 1.35 | 1.26 | enough cells to score |
| Kif22 (kinesin family member 22) | -1.66 (active) | 1.26 | 1.16 | enough cells to score |
| Nus1 (NUS1 dehydrodolichyl diphosphate synthase subunit) | -0.08 | 1.55 | 1.78 | enough cells to score |
| Ccdc51 (coiled-coil domain containing 51) | 0.24 | 1.4 | 1.49 | enough cells to score |
| Igsf9 (immunoglobulin superfamily, member 9) | – | 1.52 | 1.37 | fewer than 50 cells per well; well left out of scoring |
| Cemip2 (cell migration inducing hyaluronidase 2) | -0.98 | 1.24 | 1.1 | enough cells to score |
| Cited2 | 1.31 | 1.74 | 2.05 | enough cells to score |
| Inhbe (inhibin beta-E) | -1.34 | 1.42 | 1.2 | enough cells to score |
| Sod1 (superoxide dismutase 1, soluble) | 0.69 | 1.64 | 1.66 | enough cells to score |
